In paper PMC2363545 one finds binding data, which are given here for one molecule.

In the experiment the target is IGF2R domains 10-13. Briefly: SPR; BIAcore; who was immobilised, buffer, pH and temperature not stated (abstract P25). In general terms: SPR reads the build-up and loss of mass on a sensor chip optically.

No constants are given. Whether binding was seen depends on the method and setting. Tags and fused reporters may be left off the sequences shown.

B1: -glucuronidase (beta-glucuronidase; the Greek letter is lost in the text shown) (enzyme, UniProt P08236 23-651)
chain: LQGGMLYPQESPSRECKELDGLWSFRADFSDNRRRGFEEQWYRRPLWESGPTVDMPVPSSFNDISQDWRLRHFVGWVWYEREVILPERWTQDLRTRVVLRIGSAHSYAIVWVNGVDTLEHEGGYLPFEADISNLVQVGPLPSRLRITIAINNTLTPTTLPPGTIQYLTDTSKYPKGYFVQNTYFDFFNYAGLQRSVLLYTTPTTYIDDITVTTSVEQDSGLVNYQISVKGSNLFKLEVRLLDAENKVVANGTGTQGQLKVPGVSLWWPYLMHERPAYLYSLEVQLTAQTSLGPVSDFYTLPVGIRTVAVTKSQFLINGKPFYFHGVNKHEDADIRGKGFDWPLLVKDFNLLRWLGANAFRTSHYPYAEEVMQMCDRYGIVVIDECPGVGLALPQFFNNVSLHHHMQVMEEVVRRDKNHPAVVMWSVANEPASHLESAGYYLKMVIAHTKSLDPSRPVTFVSNSNYAADKGAPYVDVICLNSYYSWYHDYGHLELIQLQLATQFENWYKKYQKPIIQSEYGAETIAGFHQDPPLMFTEEYQKSLLEQYHLGLDQKRRKYVVGELIWNFADFMTEQSPTRVLGNKKGIFTRQRQPKSAAFLLRERYWKIANETRYPHSVAKSQCLENSLFT
As for B1, the binding entry is listed as “no binding”.
